No constants are given. Whether binding was seen depends on the method and setting. In cells and extracts the contact can be indirect. Some entries that bind do so weakly or less than the wild type.

Protein sequences, listed by entry. Tags and fused reporters are not part of them. Lines headed by an entry give the natural chain unless they say otherwise; changes in a name come on top.
UniProt P10244: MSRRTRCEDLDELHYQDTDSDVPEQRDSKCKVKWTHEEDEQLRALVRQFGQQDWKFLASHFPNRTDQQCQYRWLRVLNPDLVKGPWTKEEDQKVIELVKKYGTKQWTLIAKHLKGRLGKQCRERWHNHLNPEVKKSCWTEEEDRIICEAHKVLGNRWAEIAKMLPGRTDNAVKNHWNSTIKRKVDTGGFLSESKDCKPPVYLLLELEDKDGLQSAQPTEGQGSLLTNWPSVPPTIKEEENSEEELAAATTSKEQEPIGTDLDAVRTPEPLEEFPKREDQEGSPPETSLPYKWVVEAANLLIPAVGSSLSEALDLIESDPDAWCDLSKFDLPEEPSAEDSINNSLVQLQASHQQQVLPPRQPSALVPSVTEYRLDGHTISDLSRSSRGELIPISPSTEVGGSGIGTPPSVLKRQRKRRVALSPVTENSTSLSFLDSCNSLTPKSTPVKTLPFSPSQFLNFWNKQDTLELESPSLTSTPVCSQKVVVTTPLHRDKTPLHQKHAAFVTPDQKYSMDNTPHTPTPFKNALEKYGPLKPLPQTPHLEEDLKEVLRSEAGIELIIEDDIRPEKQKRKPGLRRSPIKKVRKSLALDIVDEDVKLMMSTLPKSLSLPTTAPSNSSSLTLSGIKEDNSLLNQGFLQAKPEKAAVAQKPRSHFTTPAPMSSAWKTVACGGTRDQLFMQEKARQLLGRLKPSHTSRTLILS
UniProt Q99814: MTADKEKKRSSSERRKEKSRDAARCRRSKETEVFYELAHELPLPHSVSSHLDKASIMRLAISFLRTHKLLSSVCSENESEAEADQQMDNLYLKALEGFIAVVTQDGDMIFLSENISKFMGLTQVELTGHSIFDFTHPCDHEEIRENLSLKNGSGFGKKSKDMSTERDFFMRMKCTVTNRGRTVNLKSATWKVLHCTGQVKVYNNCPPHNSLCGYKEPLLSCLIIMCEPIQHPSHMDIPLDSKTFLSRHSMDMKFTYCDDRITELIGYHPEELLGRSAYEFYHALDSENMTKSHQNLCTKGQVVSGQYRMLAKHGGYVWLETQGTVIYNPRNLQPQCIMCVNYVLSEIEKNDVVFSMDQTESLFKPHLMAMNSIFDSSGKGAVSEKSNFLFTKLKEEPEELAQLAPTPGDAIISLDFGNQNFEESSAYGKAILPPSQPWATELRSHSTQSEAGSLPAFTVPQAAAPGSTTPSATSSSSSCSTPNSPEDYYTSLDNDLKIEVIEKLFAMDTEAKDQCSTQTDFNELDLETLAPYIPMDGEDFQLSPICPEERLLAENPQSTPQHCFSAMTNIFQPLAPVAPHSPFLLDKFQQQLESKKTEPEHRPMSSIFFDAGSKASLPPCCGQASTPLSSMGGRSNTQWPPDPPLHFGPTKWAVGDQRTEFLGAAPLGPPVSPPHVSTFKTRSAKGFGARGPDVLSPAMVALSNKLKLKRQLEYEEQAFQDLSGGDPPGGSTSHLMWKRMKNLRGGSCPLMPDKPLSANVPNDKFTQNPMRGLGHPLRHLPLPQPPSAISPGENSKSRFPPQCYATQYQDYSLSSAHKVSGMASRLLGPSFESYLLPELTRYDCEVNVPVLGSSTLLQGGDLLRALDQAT

The target of assay [1] is 3×HA-B-Myb, full length (human) (UniProt P10244). In words: co-IP; 3×FLAG-HIF-2α and 3×HA-B-Myb (wild type or deletion mutants) coexpressed in HEK293T cells; lysates immunoprecipitated with anti-HA, immunoblotted with anti-FLAG or anti-HA.
Assay [2] has as its target Hypoxia-inducible factor-2α (endogenous) (human (endogenous in 786-O)) (UniProt Q99814). Put plainly: co-IP; endogenous proteins; nuclear fraction of 786-O cells, IP with anti-HIF-2α, immunoblot anti-B-Myb. A general note: A western blot detects proteins with antibodies after separation by electrophoresis.
Assay [3] shares this target. Put plainly: co-IP; endogenous proteins; 786-O cell lysates immunoprecipitated with an anti-HIF-2α antibody, immunoblotted with anti-B-Myb or anti-HIF-2α.

Consider “3×FLAG-HIF-2α(436–870) (from UniProt Q99814 436-870) (domain or fragment)”, for which, in assay [1], the binding entry was “binds”.

“3×FLAG-HIF-2α, full length (from UniProt Q99814 1-870)”: the binding result in assay [1] is “binds”.

With “Myb-related protein 2 (endogenous) (from UniProt P10244 1-700)”, the binding entry in assay [2] and in assay [3] was “binds” each time.
